Measurements reported in PubChem BioAssay AID504808 (Drosophila RNAi Screening Center, 2011)
The deposit covers about 21,000 reagents; below is an unselected part of those that have a named target and a result. Of all reagents, 18 (0.084%) got an active call. 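Raw counts without plate normalisation, one of two replicates; the ratio scores behind the calls were not deposited.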 Names joined by + are all predicted targets of the reagent. No sequences are given here. The record does not give: the amount of reagent, the time to read-out.

- Purpose: 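Fly genes required to hold E2F transcription in check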 (primary screen)
- Cells: Drosophila S2 cells
- Reagent: long dsRNA against Drosophila genes
- Measurement: 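Firefly luciferase driven by E2F sites, normalised to Renilla luciferase on the same minimal promoter, measured by plate reader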
- Scale: E2F firefly: higher = more E2F reporter activity; Renilla normaliser: higher = more normaliser reporter signal
- Call rule: 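Called active if the normalised E2F reporter went up by over 50%; the cutoff is arbitrary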

| target gene | dsRNA | E2F firefly, rep 1 | Renilla normaliser, rep 1 | outcome |
| --- | --- | --- | --- | --- |
| mei-P26 (meiotic P26) | DRSC17735 | 5956 | 784 | inactive |
| CG14556 | DRSC14899 | 1.10e5 | 5755 | inactive |
| Fatp (retired record) | DRSC03054 | 79588 | 3416 | inactive |
| CG11437 | DRSC11659 | 1.10e5 | 4838 | inactive |
| CG32813 | DRSC17948 | 72729 | 5009 | inactive |
| CG3251 | DRSC00586 | 1.73e5 | 6262 | inactive |
| Corp (Companion of reaper) | DRSC17771 | 7895 | 796 | inactive |
| CG7201 | DRSC10786 | 1.02e5 | 3975 | inactive |
| CG15614 | DRSC06567 | 1.43e5 | 4976 | inactive |
| nst (nesthocker) | DRSC09755 | 73631 | 3433 | inactive |
| Cyp6d2 (Cytochrome P450 6d2) | DRSC04606 | 90298 | 4080 | inactive |
| NimB5 (Nimrod B5) | DRSC01885 | 1.03e5 | 4789 | inactive |
| CG3927 | DRSC04433 | 1.07e5 | 4942 | inactive |
| CG30428 | DRSC04041 | 1.44e5 | 5219 | inactive |
| CG10912 | DRSC06009 | 70122 | 3043 | inactive |
| Ccdc85 | DRSC00501 | 1.26e5 | 4582 | inactive |
| luna | DRSC05253 | 1.38e5 | 5039 | inactive |
| luna | DRSC06663 | 1.05e5 | 4126 | inactive |
| luna | DRSC07336 | 1.30e5 | 4462 | inactive |
| CG13958 (retired record) | DRSC02300 | 82084 | 3903 | inactive |
| M1BP (Motif 1 Binding Protein) | DRSC16566 | 1.02e5 | 3354 | active |
| CG8838 | DRSC00712 | 90375 | 3857 | inactive |
| CG7557 | DRSC10878 | 76599 | 3905 | inactive |
| CG8176 | DRSC16394 | 1.33e5 | 5246 | inactive |
| CG6330 | DRSC16022 | 1835 | 904 | inactive |
| Snoo (Sno oncogene) | DRSC01008 | 1.31e5 | 5986 | inactive |
| Snoo (Sno oncogene) | DRSC03004 | 91250 | 3511 | inactive |
| Snoo (Sno oncogene) | DRSC03035 | 1.55e5 | 5011 | inactive |
| S-Lap7 (Sperm-Leucylaminopeptidase 7) | DRSC06374 | 93830 | 4400 | inactive |
| SPR (Sex peptide receptor) | DRSC17390 | 76987 | 2330 | inactive |
| SPR (Sex peptide receptor) | DRSC17886 | 1.00e5 | 6872 | inactive |
| SPR (Sex peptide receptor) | DRSC18114 | 1.03e5 | 5166 | inactive |

A few values from the list.
Snoo (Sno oncogene) [DRSC03004], E2F firefly, rep 1: 91250
Result for SPR (Sex peptide receptor) [DRSC17390] in “outcome”: inactive
Fatp (retired record) [DRSC03054], outcome: inactive
Under “E2F firefly, rep 1”, CG30428 [DRSC04041] has 1.44e5

Further records follow.
| target gene | dsRNA | E2F firefly, rep 1 | Renilla normaliser, rep 1 | outcome |
| --- | --- | --- | --- | --- |
| Loxl1 (Lysyl oxidase-like 1) | DRSC14303 | 52961 | 4511 | inactive |
| spir (spire) | DRSC03619 | 1.21e5 | 5239 | inactive |
| bsk (basket) | DRSC03499 | 77376 | 3315 | inactive |
| mbl (muscleblind) | DRSC05657 | 1.61e5 | 7385 | inactive |
| mbl (muscleblind) | DRSC06449 | 65593 | 3310 | inactive |
| mbl (muscleblind) | DRSC07651 | 1.09e5 | 5133 | inactive |
| cv (crossveinless) | DRSC17833 | 45597 | 3924 | inactive |
| beta4GalT7 (beta-4-galactosyltransferase 7) | DRSC14385 | 1.11e5 | 6110 | inactive |
| CG15480 | DRSC02490 | 1.07e5 | 4023 | inactive |
| Pgant7 (Polypeptide N-Acetylgalactosaminyltransferase 7) | DRSC19991 | 1.50e5 | 5432 | inactive |
| Mmp1 (Matrix metalloproteinase 1) | DRSC04493 | 1.11e5 | 4573 | inactive |
| CG14423 | DRSC17920 | 1.06e5 | 5935 | inactive |
| eIF3m (eukaryotic translation initiation factor 3 subunit m) | DRSC07142 | 2300 | 239 | inactive |
| Cyp49a1 (Cytochrome P450 49a1) | DRSC06737 | 1.48e5 | 5089 | inactive |
| Cyp49a1 (Cytochrome P450 49a1) | DRSC07367 | 1.40e5 | 5006 | inactive |
| Hmbs (Hydroxymethylbilane synthase) | DRSC08632 | 72422 | 3398 | inactive |
| Sk2 (Sphingosine kinase 2) | DRSC08556 | 85865 | 3106 | inactive |
| Eps-15 (Epidermal growth factor receptor pathway substrate clone 15) | DRSC04288 | 85528 | 3678 | inactive |
| Mpcp2 | DRSC11226 | 1.73e5 | 8335 | inactive |
| mus101 (mutagen-sensitive 101) | DRSC19388 | 1.24e5 | 5088 | inactive |
| CG9483 | DRSC03226 | 81891 | 3549 | inactive |
| scf (supercoiling factor) | DRSC08735 | 93888 | 4562 | inactive |
| Sirt7 (Sirtuin 7) | DRSC14294 | 1205 | 896 | inactive |
| trio | DRSC07928 | 1.39e5 | 4560 | inactive |
| trio | DRSC08527 | 82223 | 4397 | inactive |
| trio | DRSC08740 | 96950 | 3702 | inactive |
| CG3652 | DRSC00624 | 1.55e5 | 4732 | inactive |
| Prosbeta4R2 (Proteasome beta4 subunit-related 2) | DRSC00503 | 87725 | 3348 | inactive |
| Smg5 (Smg5 nonsense mediated mRNA decay factor) | DRSC03124 | 57889 | 3582 | inactive |
| Egfr (Epidermal growth factor receptor) | DRSC03871 | 1.32e5 | 4684 | inactive |
| Egfr (Epidermal growth factor receptor) | DRSC04613 | 83233 | 3292 | inactive |
| Pp4-19C (Protein phosphatase 19C) | DRSC20559 | 1.31e5 | 5468 | inactive |
| Pp4-19C (Protein phosphatase 19C) | DRSC21251 | 1.38e5 | 5891 | inactive |
| Ste:CG33238 + Ste:CG33241 + Ste:CG33236 + 11 more | DRSC19004 | 85118 | 2286 | inactive |
| Ste:CG33238 + Ste:CG33241 + Ste:CG33236 + 11 more | DRSC21260 | 1.43e5 | 6574 | inactive |
| ppk25 (pickpocket 25) | DRSC04973 | 1.45e5 | 5661 | inactive |
| CG17707 | DRSC20650 | 1.42e5 | 6928 | inactive |
| ttm3 (tiny tim 3) | DRSC03736 | 1.03e5 | 4305 | inactive |
| KFase (Kynurenine formamidase) | DRSC03258 | 1.61e5 | 5431 | inactive |
| rtv (retroactive) | DRSC19541 | 7191 | 788 | inactive |
| CG8100 | DRSC10961 | 1.67e5 | 7109 | inactive |
| Pde9 (Phosphodiesterase 9) | DRSC19746 | 1.37e5 | 6374 | inactive |
| Pde9 (Phosphodiesterase 9) | DRSC19874 | 1.31e5 | 6962 | inactive |
| Pde9 (Phosphodiesterase 9) | DRSC19875 | 7696 | 393 | inactive |
| Pde9 (Phosphodiesterase 9) | DRSC19876 | 1.01e5 | 4827 | inactive |
| Trmt6 (tRNA methyltransferase 6 non-catalytic subunit) | DRSC03272 | 1.41e5 | 5766 | inactive |
| CG7742 | DRSC03066 | 90446 | 3883 | inactive |
| CG14722 | DRSC14944 | 68329 | 3171 | inactive |
| CG16964 | DRSC02546 | 89487 | 3778 | inactive |
| Spps (Sp1-like factor for pairing sensitive-silencing) | DRSC15856 | 70999 | 3435 | inactive |
| SMC5 (Structural maintenance of chromosomes 5) | DRSC11849 | 74772 | 2984 | inactive |
| hdm (hold'em) | DRSC18013 | 59809 | 3999 | inactive |
